Results: patent US8110368B1, “Synuclein gamma as a biomarker of obesity and obesity-related disorders” (The United States of America Department of Agriculture, as …, priority 2008, dated 2012)
At least one structure is not confirmed: it was looked up by name or label, or the drawing left a doubt.

Legend:
[1] = system: γ-synuclein mRNA in 3T3-L1 adipocytes; assay: γ-synuclein mRNA expression in 3T3-L1 adipocytes treated with PPARγ agonist (quantitative real-time PCR); type: cell-based, murine; settings: data not shown
Method: (§1) 3T3-L1 Adipocyte Differentiation & PPARγAgonist Studies. Results herein were generated using the samples described in our recently-published studies (1). Briefly, murine 3T3-L1 fibroblasts (ATCC, Manassas, Va.) grown to between 5-9 passages were induced to differentiate into adipocytes using a protocol similar to Farmer et al. (i.e., (22)). Two-day-confluent cells grown in high-glucose (25 mM) DMEM and 10% FBS (37° C., 5% CO2) in 6-well rat tail collagen-coated plates were exposed to differentiation medium containing 10 μg/ml bovine insulin (˜1.6 μM), 1 μM dexamethasone, and 0.5 mM 3-isobutyl-1-methylxanthine (IBMX) for 2 days. […]
(§2) Gene Expression Analyses. RNA abundance of γ-synuclein and of other genes of interest were measured in 3T3-L1 adipocyte samples using quantitative real-time PCR, as described in detail previously (1). […] Mouse and human tissue panel samples, and samples derived from non-obese and obese WAT (24) were assayed using a two-step process with preparation of cDNA from total RNA, followed by quantitative real-time PCR. […] Amplification cycle number (Ct) of 18S for each sample was determined using commercial 18S primers and probe (ABI) to correct for template loading differences across all target genes (ΔCt method: ΔCt=sample Ct−18S Ct), and expression values were determined relative to control transcript levels using a mathematical formula as previously described (1). […]

[2] = system: leptin mRNA in 3T3-L1 adipocytes; assay: leptin mRNA expression in 3T3-L1 adipocytes treated with PPARγ agonist (quantitative real-time PCR); type: cell-based, murine; settings: data not shown
Method: as §1, §2

## Cc1c(C)c2c(c(C)c1O)CCC(C)(COc1ccc(CC3SC(=O)NC3=O)cc1)O2 (centres unmarked) [troglitazone]
[1]
  γ-synuclein mRNA levels (direction of change): decreased
[2]
  leptin mRNA levels (direction of change): decreased
